Results from cells or extracts need not show a direct contact. Negatives hold for the conditions tested.
Molecular target: cMet (HGFR) on NCI-H1838 cells (human) (UniProt P08581)
Test: flow cytometry
Conditions: four 5-(1-dodecynyl)-2'-deoxyuridine residues at 5' end, protein on the cell surface, label: 5'-Atto647N

Row | Sequence | binding result (marginal staining, minimal shift, 37 C, single-stranded DNA, variant of Atto647N-trCLN3-L4 (Atto647N-3)) | binding result (strong uptake at 37 C (1 and 10 uM), weak membrane-localized signal at 4 C, confocal and flow, folded or branched DNA, variant of trCLN3-L4)
1 | TGGATGATAGCTCGGTCGGGGTGGATGGGTTGGCAAGTCT [Atto647N-trCLN3.mut-L4 (Atto647N.mut-3)] | no binding | 
2 | TGGATGGTAGCTCGGTCGGGGTGGGTGGGTTGGCAAGTCT [Atto647N-trCLN3-L4 (Atto647N-3)] |  | binds
